Results from article PMC7295806.
These are yes or no findings as the source states them, for the method shown. Binding seen in cells or lysates may run through a third protein. Some binding calls cover weakened binding; strength is not graded here.

Chains of the proteins cited; added tags and fusions are not shown.
UniProt Q99728: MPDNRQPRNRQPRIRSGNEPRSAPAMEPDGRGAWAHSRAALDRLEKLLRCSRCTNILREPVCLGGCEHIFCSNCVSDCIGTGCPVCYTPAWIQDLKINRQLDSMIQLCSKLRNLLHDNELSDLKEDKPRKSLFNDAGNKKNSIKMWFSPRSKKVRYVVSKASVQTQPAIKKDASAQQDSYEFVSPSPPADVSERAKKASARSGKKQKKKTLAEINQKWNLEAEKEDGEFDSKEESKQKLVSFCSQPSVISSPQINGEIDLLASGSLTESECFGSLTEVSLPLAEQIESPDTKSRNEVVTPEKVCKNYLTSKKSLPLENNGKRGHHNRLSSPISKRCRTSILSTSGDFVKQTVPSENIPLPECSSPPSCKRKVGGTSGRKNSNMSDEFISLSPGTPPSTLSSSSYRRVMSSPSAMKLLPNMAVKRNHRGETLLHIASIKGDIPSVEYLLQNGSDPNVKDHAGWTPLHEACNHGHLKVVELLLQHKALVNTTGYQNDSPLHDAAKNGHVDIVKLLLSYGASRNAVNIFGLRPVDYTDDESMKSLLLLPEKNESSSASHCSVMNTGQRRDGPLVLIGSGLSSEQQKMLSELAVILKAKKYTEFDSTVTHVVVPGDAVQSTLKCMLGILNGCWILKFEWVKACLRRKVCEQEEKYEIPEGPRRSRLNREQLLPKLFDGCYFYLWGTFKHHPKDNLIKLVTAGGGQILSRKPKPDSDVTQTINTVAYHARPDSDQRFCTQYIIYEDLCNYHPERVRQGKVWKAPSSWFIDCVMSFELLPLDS
UniProt Q92560: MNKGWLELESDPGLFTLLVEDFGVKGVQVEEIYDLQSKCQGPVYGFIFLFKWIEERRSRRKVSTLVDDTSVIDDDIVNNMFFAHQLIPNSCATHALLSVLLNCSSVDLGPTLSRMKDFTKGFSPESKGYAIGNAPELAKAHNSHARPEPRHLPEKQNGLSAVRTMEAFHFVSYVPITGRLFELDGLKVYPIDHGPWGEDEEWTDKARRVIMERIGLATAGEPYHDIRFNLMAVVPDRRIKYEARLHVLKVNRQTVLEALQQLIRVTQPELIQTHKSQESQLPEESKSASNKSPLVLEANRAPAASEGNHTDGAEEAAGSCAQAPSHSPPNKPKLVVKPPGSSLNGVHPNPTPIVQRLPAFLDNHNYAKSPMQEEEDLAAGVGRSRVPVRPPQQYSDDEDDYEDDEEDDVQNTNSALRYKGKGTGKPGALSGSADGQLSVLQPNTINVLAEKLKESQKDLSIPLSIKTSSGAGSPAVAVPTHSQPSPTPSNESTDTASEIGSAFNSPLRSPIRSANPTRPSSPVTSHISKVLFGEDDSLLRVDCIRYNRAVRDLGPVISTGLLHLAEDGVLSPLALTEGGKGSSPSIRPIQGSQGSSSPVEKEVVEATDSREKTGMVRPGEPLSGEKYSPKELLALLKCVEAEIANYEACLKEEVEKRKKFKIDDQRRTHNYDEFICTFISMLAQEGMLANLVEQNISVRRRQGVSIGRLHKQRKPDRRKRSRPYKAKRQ

Target: Flag-tagged wild-type full-length BARD1 (BRCA1-associated RING domain 1) (UniProt Q99728)
Experiment: co-IP; HEK293T transfected with Flag-BARD1; nuclear extracts (buffer C: 20 mM HEPES, 480 mM KCl, 0.1% Igepal CA-630, 0.1% SDS) on anti-FLAG beads overnight at 4 °C; western blotting for endogenous proteins; cells with full-length BARD1 also exposed to 10 Gy of IR

binding: binds
Substance: BAP1 (BRCA1 Associated Protein-1) (from UniProt Q92560 1-729)
